Some entries share one result that the patent states for a list of compounds.
What was measured:
[1] = test system: Phaeosphaeria Nodorum (Septoria nodorum); experiment: Phaeosphaeria nodorum (Septoria nodorum) / wheat / leaf disc preventative (glume blotch); assay type: in vivo; settings: 200 ppm; wheat leaf segments cv Kanzler, inoculated 2 days after application; assessed 5-7 days after application vs untreated
[2] = test system: Puccinia recondita f. Sp. Tritici; experiment: Puccinia recondita f. sp. tritici / wheat / leaf disc preventative (brown rust); assay type: in vivo; settings: 200 ppm; wheat leaf segments cv Kanzler, inoculated 1 day after application; assessed 7-9 days after application vs untreated

| SMILES | disease control [1] | disease control [2] |
| --- | --- | --- |
| Cc1cccc(-c2cc3c(cc2Cl)COB3O)c1 [Compound 5] | at least 80% | – |
| OB1OCc2cc(Cl)c(-c3ccccc3)cc21 [Compound 3, 5-chloro-1-hydroxy-6-phenyl-3H-2,1-benzoxaborole] | at least 80% | at least 80% |
| OB1OCc2cc(F)c(-c3ccc(F)cc3)cc21 [Compound 10] | at least 80% | at least 80% |
| OB1OCc2cc(F)c(-c3ccccc3)cc21 [Compound 9] | at least 80% | – |
| Cc1ccccc1-c1cc2c(cc1Cl)COB2O [Compound 4] | – | at least 80% |
| COc1ccc(-c2cc3c(cc2Cl)COB3O)cc1 [Compound 8, 5-chloro-1-hydroxy-6-(4-methoxyphenyl)-3H-2,1-benzoxaborole] | – | at least 80% |
| OB1OCc2ccc(-c3ccccc3)cc21 [Compound 1, 1-hydroxy-6-phenyl-3H-2,1-benzoxaborole] | at least 80% | – |
| COc1ccccc1-c1cc2c(cc1Cl)COB2O [Compound 7, 5-chloro-1-hydroxy-6-(2-methoxyphenyl)-3H-2,1-benzoxaborole] | at least 80% | at least 80% |
| Cc1ccc(-c2cc3c(cc2Cl)COB3O)cc1 [Compound 6] | at least 80% | – |
| OB1OCc2cc(F)c(-c3ccc(Cl)cc3Cl)cc21 [Compound 28] | – | at least 80% |
